From the supplement of paper PMC12819154, “High-throughput peptide-centric local stability assay extends protein–ligand identification to membrane proteins, tissues and bacteria” (Nature Structural & Molecular Biology, 2025)
Some of the results follow. Small differences around the control level are noise.

Sequences of proteins named here, by UniProt entry; tags and fusion partners are left off. A change or cut given only in a name is not applied to a line headed by its entry.
UniProt P09629: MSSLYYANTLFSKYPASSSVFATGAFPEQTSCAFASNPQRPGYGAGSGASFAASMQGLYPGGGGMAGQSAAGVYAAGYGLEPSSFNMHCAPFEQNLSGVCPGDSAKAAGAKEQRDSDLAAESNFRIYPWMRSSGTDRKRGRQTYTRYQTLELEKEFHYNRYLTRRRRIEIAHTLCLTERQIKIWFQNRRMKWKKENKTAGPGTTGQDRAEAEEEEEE
UniProt P11277, whole entry: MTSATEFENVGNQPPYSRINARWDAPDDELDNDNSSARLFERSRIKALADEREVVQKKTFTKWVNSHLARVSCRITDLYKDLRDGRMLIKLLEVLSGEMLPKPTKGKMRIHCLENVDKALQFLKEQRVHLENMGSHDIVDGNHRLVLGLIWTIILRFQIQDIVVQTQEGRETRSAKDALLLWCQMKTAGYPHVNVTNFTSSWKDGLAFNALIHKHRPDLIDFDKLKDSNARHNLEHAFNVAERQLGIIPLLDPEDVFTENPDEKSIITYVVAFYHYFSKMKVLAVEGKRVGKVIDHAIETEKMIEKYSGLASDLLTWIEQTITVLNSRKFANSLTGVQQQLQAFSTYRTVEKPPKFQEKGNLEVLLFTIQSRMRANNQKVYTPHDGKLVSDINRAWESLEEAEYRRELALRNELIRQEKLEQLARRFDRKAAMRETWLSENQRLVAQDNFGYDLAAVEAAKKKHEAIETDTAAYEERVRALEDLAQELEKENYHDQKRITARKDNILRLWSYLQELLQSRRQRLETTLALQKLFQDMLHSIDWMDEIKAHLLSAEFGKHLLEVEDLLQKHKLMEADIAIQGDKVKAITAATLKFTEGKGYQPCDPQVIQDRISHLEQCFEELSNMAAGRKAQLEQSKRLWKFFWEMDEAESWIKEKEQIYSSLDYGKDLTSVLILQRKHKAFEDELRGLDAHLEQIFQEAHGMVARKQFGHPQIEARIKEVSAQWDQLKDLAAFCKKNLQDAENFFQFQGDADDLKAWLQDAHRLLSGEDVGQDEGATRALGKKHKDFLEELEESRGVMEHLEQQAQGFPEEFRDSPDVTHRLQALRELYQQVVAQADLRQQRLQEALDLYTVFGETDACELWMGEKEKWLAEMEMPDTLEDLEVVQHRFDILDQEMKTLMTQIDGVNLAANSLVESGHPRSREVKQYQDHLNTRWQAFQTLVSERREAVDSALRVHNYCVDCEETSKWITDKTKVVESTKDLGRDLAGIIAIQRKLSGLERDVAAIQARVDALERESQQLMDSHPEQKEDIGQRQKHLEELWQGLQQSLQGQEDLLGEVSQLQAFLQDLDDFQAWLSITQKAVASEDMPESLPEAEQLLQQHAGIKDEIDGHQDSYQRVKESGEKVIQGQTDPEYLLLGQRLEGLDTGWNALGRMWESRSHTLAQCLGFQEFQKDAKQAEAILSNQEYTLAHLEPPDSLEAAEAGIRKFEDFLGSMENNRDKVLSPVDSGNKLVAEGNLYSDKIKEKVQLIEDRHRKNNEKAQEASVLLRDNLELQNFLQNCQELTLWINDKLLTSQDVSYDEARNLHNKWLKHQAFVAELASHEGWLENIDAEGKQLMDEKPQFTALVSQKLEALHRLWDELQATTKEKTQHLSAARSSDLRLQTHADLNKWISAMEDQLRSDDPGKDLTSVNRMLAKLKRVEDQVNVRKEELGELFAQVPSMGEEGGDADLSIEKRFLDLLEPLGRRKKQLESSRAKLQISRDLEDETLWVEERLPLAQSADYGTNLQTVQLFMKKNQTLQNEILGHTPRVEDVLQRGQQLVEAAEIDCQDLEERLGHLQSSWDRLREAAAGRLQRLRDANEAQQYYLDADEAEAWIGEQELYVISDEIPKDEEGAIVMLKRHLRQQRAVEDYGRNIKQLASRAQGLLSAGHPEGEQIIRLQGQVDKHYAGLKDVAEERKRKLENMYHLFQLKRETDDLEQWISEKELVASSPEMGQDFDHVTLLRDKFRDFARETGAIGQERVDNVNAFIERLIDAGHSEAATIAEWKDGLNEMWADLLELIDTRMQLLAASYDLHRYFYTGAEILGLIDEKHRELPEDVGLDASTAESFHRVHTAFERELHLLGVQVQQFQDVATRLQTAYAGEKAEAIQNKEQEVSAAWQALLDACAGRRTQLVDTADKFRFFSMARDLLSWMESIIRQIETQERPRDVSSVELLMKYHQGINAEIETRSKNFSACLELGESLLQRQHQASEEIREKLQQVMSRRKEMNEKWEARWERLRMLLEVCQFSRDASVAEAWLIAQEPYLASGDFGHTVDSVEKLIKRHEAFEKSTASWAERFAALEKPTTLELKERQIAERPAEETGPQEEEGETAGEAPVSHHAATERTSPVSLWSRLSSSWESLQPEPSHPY
UniProt P04080: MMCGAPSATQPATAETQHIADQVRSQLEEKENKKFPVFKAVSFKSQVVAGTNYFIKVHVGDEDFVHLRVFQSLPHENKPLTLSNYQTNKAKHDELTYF
UniProt P01106: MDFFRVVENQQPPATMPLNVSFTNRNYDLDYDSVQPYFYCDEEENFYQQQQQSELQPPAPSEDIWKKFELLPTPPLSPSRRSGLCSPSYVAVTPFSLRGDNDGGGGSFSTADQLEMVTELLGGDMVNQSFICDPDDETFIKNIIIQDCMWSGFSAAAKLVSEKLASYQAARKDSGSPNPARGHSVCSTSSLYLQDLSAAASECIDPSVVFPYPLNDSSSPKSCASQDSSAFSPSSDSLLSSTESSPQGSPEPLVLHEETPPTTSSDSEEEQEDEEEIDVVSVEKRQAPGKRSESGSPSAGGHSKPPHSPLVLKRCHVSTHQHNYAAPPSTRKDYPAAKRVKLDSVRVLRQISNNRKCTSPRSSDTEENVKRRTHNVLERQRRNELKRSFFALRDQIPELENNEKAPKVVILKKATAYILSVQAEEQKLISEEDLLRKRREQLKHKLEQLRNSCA
UniProt P11831: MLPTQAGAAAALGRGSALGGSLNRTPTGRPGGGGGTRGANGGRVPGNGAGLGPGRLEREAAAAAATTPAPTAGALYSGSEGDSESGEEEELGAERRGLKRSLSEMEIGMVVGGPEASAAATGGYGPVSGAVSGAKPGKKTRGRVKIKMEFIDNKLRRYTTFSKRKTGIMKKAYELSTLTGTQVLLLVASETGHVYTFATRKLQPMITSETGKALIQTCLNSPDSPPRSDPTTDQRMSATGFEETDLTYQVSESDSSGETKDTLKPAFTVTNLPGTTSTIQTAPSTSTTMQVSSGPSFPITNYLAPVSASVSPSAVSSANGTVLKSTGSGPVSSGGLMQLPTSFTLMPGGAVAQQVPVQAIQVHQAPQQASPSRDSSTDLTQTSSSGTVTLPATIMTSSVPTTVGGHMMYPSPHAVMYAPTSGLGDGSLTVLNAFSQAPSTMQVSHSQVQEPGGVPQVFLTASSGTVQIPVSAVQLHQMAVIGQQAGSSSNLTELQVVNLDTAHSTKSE
UniProt P12757: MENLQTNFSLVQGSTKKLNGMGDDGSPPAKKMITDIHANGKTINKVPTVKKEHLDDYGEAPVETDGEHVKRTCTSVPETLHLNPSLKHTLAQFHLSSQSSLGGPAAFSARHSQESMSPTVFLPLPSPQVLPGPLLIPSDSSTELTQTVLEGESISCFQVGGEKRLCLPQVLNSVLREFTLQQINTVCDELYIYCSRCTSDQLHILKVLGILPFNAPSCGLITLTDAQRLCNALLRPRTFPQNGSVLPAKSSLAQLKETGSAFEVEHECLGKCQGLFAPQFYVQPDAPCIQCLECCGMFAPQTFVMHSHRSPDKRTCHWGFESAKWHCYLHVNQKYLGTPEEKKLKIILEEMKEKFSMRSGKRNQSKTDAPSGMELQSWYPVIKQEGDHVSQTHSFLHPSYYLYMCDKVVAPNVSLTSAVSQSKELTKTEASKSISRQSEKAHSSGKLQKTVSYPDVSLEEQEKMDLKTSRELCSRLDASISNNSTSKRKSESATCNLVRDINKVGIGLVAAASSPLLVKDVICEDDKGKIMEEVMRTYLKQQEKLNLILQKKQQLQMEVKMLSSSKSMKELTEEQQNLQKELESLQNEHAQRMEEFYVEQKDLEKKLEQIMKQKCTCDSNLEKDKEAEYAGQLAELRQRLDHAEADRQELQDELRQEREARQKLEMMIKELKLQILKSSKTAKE
UniProt P11717, whole entry: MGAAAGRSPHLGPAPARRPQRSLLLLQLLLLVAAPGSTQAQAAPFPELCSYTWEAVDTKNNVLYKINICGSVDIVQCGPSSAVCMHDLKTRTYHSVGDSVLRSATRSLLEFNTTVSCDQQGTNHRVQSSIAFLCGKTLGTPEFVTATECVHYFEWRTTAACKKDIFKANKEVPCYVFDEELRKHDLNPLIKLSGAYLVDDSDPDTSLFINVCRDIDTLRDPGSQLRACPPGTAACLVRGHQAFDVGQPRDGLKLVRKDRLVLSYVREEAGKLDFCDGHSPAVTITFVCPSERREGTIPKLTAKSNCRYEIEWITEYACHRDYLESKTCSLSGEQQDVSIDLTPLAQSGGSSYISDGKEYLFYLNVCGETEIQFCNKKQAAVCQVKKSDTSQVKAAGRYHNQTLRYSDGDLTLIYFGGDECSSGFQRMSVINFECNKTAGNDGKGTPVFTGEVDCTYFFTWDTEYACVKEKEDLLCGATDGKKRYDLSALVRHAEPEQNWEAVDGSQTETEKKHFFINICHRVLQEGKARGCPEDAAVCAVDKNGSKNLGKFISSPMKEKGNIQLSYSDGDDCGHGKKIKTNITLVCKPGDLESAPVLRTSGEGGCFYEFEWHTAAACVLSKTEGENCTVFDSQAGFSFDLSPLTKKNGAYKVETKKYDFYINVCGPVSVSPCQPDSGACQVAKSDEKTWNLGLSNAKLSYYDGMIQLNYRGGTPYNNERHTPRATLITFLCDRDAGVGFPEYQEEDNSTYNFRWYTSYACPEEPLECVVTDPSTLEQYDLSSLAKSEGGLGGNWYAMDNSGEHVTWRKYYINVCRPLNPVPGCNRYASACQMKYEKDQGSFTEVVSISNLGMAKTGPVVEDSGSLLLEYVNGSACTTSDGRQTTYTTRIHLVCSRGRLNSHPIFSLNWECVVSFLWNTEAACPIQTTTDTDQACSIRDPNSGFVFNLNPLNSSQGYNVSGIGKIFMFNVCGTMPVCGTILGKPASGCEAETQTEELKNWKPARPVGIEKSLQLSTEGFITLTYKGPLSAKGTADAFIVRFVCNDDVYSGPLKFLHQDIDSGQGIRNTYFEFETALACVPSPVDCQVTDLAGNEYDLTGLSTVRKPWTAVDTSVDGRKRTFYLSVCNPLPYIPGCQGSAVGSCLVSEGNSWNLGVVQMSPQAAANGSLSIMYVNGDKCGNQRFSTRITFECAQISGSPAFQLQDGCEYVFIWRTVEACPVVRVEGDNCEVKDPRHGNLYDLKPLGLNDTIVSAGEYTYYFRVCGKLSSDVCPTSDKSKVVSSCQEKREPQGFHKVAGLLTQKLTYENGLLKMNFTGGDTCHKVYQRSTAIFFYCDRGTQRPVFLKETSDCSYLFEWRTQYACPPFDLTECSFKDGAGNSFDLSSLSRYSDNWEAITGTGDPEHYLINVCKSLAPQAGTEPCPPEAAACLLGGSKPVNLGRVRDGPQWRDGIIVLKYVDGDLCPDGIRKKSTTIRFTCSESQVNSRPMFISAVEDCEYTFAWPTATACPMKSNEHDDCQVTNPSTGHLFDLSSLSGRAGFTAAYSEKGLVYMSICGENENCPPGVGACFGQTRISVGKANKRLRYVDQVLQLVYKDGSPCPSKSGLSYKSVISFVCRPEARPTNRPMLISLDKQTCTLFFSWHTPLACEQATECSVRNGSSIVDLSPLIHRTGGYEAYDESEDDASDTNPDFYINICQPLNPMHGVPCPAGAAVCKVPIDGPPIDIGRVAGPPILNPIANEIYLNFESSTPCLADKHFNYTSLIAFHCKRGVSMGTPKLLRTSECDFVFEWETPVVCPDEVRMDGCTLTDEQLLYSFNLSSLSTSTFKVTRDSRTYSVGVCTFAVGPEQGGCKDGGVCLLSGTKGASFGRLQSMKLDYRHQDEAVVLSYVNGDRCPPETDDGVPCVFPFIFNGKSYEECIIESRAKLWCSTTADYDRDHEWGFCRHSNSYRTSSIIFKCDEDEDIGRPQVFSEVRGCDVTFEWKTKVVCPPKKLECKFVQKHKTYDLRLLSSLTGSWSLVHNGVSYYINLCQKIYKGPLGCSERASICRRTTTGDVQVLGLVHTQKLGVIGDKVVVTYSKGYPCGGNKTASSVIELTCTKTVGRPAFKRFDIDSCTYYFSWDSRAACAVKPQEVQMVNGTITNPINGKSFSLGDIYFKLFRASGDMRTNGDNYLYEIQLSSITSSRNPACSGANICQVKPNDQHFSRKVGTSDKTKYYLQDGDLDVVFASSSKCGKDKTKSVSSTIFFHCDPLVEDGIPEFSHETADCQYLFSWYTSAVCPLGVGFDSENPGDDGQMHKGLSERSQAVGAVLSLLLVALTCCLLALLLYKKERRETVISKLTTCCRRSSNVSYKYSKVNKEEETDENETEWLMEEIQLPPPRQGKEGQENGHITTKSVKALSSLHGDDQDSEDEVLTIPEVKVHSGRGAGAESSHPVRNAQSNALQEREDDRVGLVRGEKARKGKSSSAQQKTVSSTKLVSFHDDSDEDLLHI

Compound: CN[C@@H]1C[C@H]2O[C@@](C)([C@@H]1OC)n1c3ccccc3c3c4c(c5c6ccccc6n2c5c31)C(=O)NC4 [staurosporine]
Assay: log2 fold change of tryptic peptide abundance, ligand vs vehicle (limited proteolysis) (log2 ratio); higher = more trypsin-susceptible (destabilized)
Conditions: ligand concentration: 20 uM; sample: K562 cleared lysate; digestion: 4 min, 22 C (HT-PELSA RT4min, Orbitrap Astral)

Row | Target | log2 fold change
1 | TK1 (peptide sequence: YSSSFCTHDR, peptide start residue: 61) (UniProt P04183) | 0.167
2 | ALAS1 (peptide sequence: TDGGDPSGLLK, peptide start residue: 158) (UniProt P13196) | 0.2
3 | EIF2S1 (peptide sequence: TAWVFDDKYK, peptide start residue: 134) (UniProt P05198) | 0.455
4 | UniProt P10827 (peptide sequence: GCCMEIMSLR, peptide start residue: 253) | -0.196
5 | UniProt P08908 (peptide sequence: DFQNAFK, peptide start residue: 158) | -0.192
6 | FH (peptide sequence: AADEVAEGK, peptide start residue: 123) (UniProt P07954) | -0.189
7 | GSR (peptide sequence: TYSTSFTPMYHAVTK, peptide start residue: 442) (UniProt P00390) | -0.48
8 | EPRS (peptide sequence: KDPSKNQGGGLSSSGAGEGQGPK, peptide start residue: 987) (UniProt P07814) | -0.187
9 | PDHB (peptide sequence: VVSPWNSEDAK, peptide start residue: 174) (UniProt P11177) | 0.233
10 | ACTN1 (peptide sequence: ILAGDKNYITMDELR, peptide start residue: 835) (UniProt P12814) | 0.407
11 | UniProt P09629 (peptide sequence: DSDLAAESNFR, peptide start residue: 115) | 0.278
12 | MT2A (peptide sequence: KSCCSCCPVGCAKCAQGCICK, peptide start residue: 31) (UniProt P02795) | -0.219
13 | UniProt P0CI00 (peptide sequence: THTGERPYK, peptide start residue: 310) | -0.121
14 | CCDC175 (peptide sequence: KLEEMRK, peptide start residue: 80) (UniProt P0C221) | -0.0207
15 | PCNA (peptide sequence: MPSGEFAR, peptide start residue: 139) (UniProt P12004) | 0.167
16 | FBXO45 (peptide sequence: NPIAQSTDGAR, peptide start residue: 135) (UniProt P0C2W1) | 0.592
17 | CTSB (peptide sequence: HYGYNSYSVSNSEKDIMAEIYK, peptide start residue: 224) (UniProt P07858) | 0.423
18 | CRYAB (peptide sequence: MDIAIHHPWIR, peptide start residue: 1) (UniProt P02511) | 0.061
19 | COL1A1 (peptide sequence: GSEGPQGVR, peptide start residue: 362) (UniProt P02452) | -0.261
20 | PYGB (peptide sequence: GLAGLGDVAEVRK, peptide start residue: 18) (UniProt P11216) | 0.172

Retrieved one by one from the list above (3):
Row | Target | log2 fold change
10 | ACTN1 (peptide sequence: ILAGDKNYITMDELR, peptide start residue: 835) (UniProt P12814) | 0.407
19 | COL1A1 (peptide sequence: GSEGPQGVR, peptide start residue: 362) (UniProt P02452) | -0.261
9 | PDHB (peptide sequence: VVSPWNSEDAK, peptide start residue: 174) (UniProt P11177) | 0.233

More results follow:

Row | Target | log2 fold change
21 | SPTB (peptide sequence: RVEDQVNVR, peptide start residue: 1423) (UniProt P11277) | 0.497
22 | APOB (peptide sequence: LIVAMSSWLQK, peptide start residue: 1230) (UniProt P04114) | 0.267
23 | CSTB (peptide sequence: AKHDELTYF, peptide start residue: 90) (UniProt P04080) | -0.335
24 | TPR (peptide sequence: NIEELQQQNQR, peptide start residue: 542) (UniProt P12270) | -0.345
25 | P4HA1 (peptide sequence: DYIKAEEDKLEQIK, peptide start residue: 44) (UniProt P13674) | 0.463
26 | UniProt P0DTW1 (peptide sequence: TPEEGEGQSQC, peptide start residue: 107) | 0.0532
27 | SLC2A1 (peptide sequence: TFDEIASGFR, peptide start residue: 459) (UniProt P11166) | -0.581
28 | UniProt P0C860 (peptide sequence: LFLHLEK, peptide start residue: 384) | 0.108
29 | DHFR (peptide sequence: EAMNHPGHLK, peptide start residue: 124) (UniProt P00374) | 0.501
30 | UniProt P0C7V8 (peptide sequence: QRPVLNFESGHTNNVFQAK, peptide start residue: 260) | -0.151
31 | MYBL2 (peptide sequence: YSMDNTPHTPTPFK, peptide start residue: 510) (UniProt P10244) | 0.301
32 | MYC (peptide sequence: KDSGSPNPAR, peptide start residue: 157) (UniProt P01106) | -0.617
33 | SRF (peptide sequence: VPGNGAGLGPGRLER, peptide start residue: 44) (UniProt P11831) | 0.45
34 | SKIL (peptide sequence: YLGTPEEK, peptide start residue: 335) (UniProt P12757) | -0.238
35 | IGF2R (peptide sequence: LVSFHDDSDEDLLHI, peptide start residue: 2477) (UniProt P11717) | -0.184
36 | PGK2 (peptide sequence: LGDVYVNDAFGTAHR, peptide start residue: 157) (UniProt P07205) | -0.0826
37 | SRC (peptide sequence: GSLLDFLK, peptide start residue: 325) (UniProt P12931) | 0.863
38 | PSAP (peptide sequence: GSAVWCQNVK, peptide start residue: 28) (UniProt P07602) | 0.119
39 | HEXB (peptide sequence: VLDIIATINK, peptide start residue: 391) (UniProt P07686) | 0.0769
